These are yes or no findings as the source states them, for the method shown. For some assays here: In cells and extracts the contact can be indirect. Some results given as binding are weak or reduced against the parent protein; the word gives no strength.
What was measured:
[1] = target: EZH2 (human (endogenous in LNCaP-abl and PC3)) (UniProt Q15910); test: co-IP; endogenous proteins in lysates of LNCaP-abl or PC3 cells treated with 10 nM E2 or DMSO (0.1% v/v); lysis buffer 50 mM Tris pH 8.0, 120 mM NaCl, 0.5% Nonidet P-40; anti-ERα and anti-EZH2 antibodies or control rabbit IgG overnight at 4 °C, protein A beads; washes with 900 mM NaCl; Western blot
[2] = target: EZH2 (human (endogenous in LNCaP-abl and PC3)) (UniProt Q15910); test: ChIP-re-ChIP; LNCaP-abl cells; eluate of the first ChIP diluted and precipitated with the second antibody; qPCR of ERE3 of the NOTCH1 promoter

Chains of the proteins cited; added tags and fusions are not shown.
UniProt Q15910: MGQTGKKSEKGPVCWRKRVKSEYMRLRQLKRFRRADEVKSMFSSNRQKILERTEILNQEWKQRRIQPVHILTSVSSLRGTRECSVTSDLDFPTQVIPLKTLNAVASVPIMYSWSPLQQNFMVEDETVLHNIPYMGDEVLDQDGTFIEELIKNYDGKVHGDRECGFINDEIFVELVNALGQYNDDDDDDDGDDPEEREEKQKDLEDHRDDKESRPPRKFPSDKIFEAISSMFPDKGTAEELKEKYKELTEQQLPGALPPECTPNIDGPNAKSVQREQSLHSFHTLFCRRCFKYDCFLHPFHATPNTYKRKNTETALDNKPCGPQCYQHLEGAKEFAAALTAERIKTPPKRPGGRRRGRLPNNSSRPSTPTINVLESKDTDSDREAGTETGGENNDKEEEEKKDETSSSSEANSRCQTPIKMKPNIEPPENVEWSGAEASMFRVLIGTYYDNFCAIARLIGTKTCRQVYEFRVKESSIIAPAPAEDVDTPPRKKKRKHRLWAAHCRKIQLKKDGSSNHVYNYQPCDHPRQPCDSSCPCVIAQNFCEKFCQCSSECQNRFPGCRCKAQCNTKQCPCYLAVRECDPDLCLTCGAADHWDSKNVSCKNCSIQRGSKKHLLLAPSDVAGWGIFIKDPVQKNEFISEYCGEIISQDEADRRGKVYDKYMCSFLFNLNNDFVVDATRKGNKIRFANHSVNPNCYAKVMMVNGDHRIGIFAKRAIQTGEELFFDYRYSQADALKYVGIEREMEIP
UniProt P03372: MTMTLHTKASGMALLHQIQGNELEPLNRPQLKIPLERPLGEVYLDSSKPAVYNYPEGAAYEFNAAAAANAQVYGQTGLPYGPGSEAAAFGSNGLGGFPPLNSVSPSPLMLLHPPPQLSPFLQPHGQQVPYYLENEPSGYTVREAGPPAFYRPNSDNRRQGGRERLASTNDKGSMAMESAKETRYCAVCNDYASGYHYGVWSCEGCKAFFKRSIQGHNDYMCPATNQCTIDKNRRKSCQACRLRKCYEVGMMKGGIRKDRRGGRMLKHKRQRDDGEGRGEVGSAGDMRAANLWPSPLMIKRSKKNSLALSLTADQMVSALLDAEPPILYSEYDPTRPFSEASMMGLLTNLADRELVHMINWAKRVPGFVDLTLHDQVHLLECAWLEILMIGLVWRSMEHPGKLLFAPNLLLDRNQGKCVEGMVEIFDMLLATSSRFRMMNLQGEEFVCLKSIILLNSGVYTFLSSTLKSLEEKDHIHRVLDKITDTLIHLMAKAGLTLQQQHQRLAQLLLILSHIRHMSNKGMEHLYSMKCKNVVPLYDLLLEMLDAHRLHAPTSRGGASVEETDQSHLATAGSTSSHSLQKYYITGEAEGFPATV

Estrogen receptor alpha (from UniProt P03372 1-595)
binding [1]: binds | binding [2]: binds

Source: article PMC6533681
